Measurements: the odorant receptor screen of Mainland et al. (2015)
Several values for one entry are separate records, joined by “and”; a condition that tells them apart may be missing. Identical values can stand only once. The list shows a part of the results. Each value is one well over the wells without odorant, computed here; the data are noisy.

Key:
Test in all cases: odorant receptor activation (CRE luciferase / Renilla) (fold of no-odor wells); higher = more activation
Conditions in all cases: 100 µM
OR52H1 clone 1702 = system: OR52H1 clone 1702
OR52I1 clone 1521 = system: OR52I1 clone 1521
OR52I2 T132M clone 1324 = system: OR52I2 T132M clone 1324
OR52K1 clone 1163 = system: OR52K1 clone 1163
OR52K2 clone 1211 = system: OR52K2 clone 1211
[1] = system: OR52L1 D73N/C125R/C146R/K168T/W282R clone 1116
OR52L2 R169W clone 1117 = system: OR52L2 R169W clone 1117
OR52M1 clone 1143 = system: OR52M1 clone 1143
OR52N1 clone 1191 = system: OR52N1 clone 1191
OR52N2 M228T clone 1569 = system: OR52N2 M228T clone 1569
[2] = system: OR52N4 T106I/L167R/N218I clone 1127
OR52N5 clone 1238 = system: OR52N5 clone 1238
OR52P1 clone 1221 = system: OR52P1 clone 1221
[3] = system: OR52R1 I129T/N201Y/S245A clone 1705
OR52W1 clone 1234 = system: OR52W1 clone 1234
OR56A1 clone 1114 = system: OR56A1 clone 1114
OR56A3 M51T clone 1128 = system: OR56A3 M51T clone 1128
OR56A4 clone 1724 = system: OR56A4 clone 1724
OR56A5 clone 1708 = system: OR56A5 clone 1708
OR56B1 C106R clone 1168 = system: OR56B1 C106R clone 1168

| Compound | odorant receptor activation (OR52H1 clone 1702) | odorant receptor activation (OR52I1 clone 1521) | odorant receptor activation (OR52I2 T132M clone 1324) | odorant receptor activation (OR52K1 clone 1163) | odorant receptor activation (OR52K2 clone 1211) | odorant receptor activation [1] | odorant receptor activation (OR52L2 R169W clone 1117) | odorant receptor activation (OR52M1 clone 1143) | odorant receptor activation (OR52N1 clone 1191) | odorant receptor activation (OR52N2 M228T clone 1569) | odorant receptor activation [2] | odorant receptor activation (OR52N5 clone 1238) | odorant receptor activation (OR52P1 clone 1221) | odorant receptor activation [3] | odorant receptor activation (OR52W1 clone 1234) | odorant receptor activation (OR56A1 clone 1114) | odorant receptor activation (OR56A3 M51T clone 1128) | odorant receptor activation (OR56A4 clone 1724) | odorant receptor activation (OR56A5 clone 1708) | odorant receptor activation (OR56B1 C106R clone 1168) |
| --- | --- | --- | --- | --- | --- | --- | --- | --- | --- | --- | --- | --- | --- | --- | --- | --- | --- | --- | --- | --- |
| C=C(C)C1CC=C(C)C(=O)C1 (configuration not stated) [r-carvone] | 0.998 | 0.96 | 0.94 | 0.931 | 0.911 | 0.908 | 0.676 | 1.12 | 0.877 | 0.885 | 0.785 | 0.787 | 0.966 | 0.96 | 0.751 | 0.993 | 1.02 | 0.599 | 1.11 | 1.08 |
| CC(C)(O)CCCC1=CCC(C=O)CC1 (configuration not stated) [lyral] | 1.07 | – | – | – | – | – | – | – | – | 0.845 | 1.1 | 1.15 | – | 0.905 | 1.27 | – | – | 0.911 | 1.22 | – |
| CC1COCc2cc3c(cc21)C(C)(C)C(C)C3(C)C (configuration not stated) [galaxolide] | 1.97 and 1.19 | – | 1.51 and 3.17 | 0.941 | 1.49 | 3.18 | 4.4 | 0.836 | 0.756 | – | 0.729 and 0.849 | 0.204 and 0.238 | 2.71 | 2.43 and 1.2 | 0.483 and 1.29 | 2.97 | 0.915 | 0.85 and 0.738 | 1.97 and 1.26 | 0.818 |
| C=CC(C)(O)CCC=C(C)C (configuration not stated) [linalool] | 1.42 | 0.849 | 0.954 | 0.917 | 1 | 1.06 | 1.19 | 0.986 | 1.12 | 0.993 | 0.968 | 0.762 | 0.998 | 0.945 | 0.951 | 1.09 | 1.13 | 0.822 | 1.34 | 0.909 |
| c1cnccn1 [pyrazine] | 0.825 | 0.915 | 0.853 | 0.98 | 0.996 | 0.946 | 0.977 | 0.976 | 0.711 | 0.765 | 1.03 | 0.804 | 0.937 | 0.85 | 0.788 | 1.15 | 1.04 | 0.655 | 1.09 | 1.33 |
| CCCC(=O)O [butyric acid] | 1.34 | 0.773 | 1.11 | 0.938 | 0.868 | 1.3 | 1.18 | 0.908 | 1.1 | 0.731 | 0.988 | 0.532 | 1.17 | 0.783 | 1.09 | 0.983 | 0.983 | 0.71 | 0.992 | 1.1 |
| C=C(C)C1CCC2=CC(=O)CC(C)C2(C)C1 (configuration not stated) [amyl laurate] | 1.69 | – | – | – | – | – | – | – | – | 0.969 | 2.12 | 1.37 | – | 1.8 | 2.69 | – | – | 1.1 | 1.97 | – |
| CC(=O)c1ccccc1 [acetophenone] | – | 1.13 and 0.715 | 2.72 | 1.13 | 1.52 | – | – | 1.54 | 1.06 | – | – | – | 1.19 | – | – | 0.701 | 1.19 | – | – | 1.04 |
| C=CCc1ccc(O)c(OC)c1 [eugenol] | 1.15 | 1.89 and 0.922 and 1.72 | 1.86 and 1.45 | 2.18 and 1.26 | 2.41 and 1.2 | 1.57 | 1.28 | 4.1 and 1.49 | 2.07 and 1.2 | 1.3 | 0.997 | 1.6 | 2.77 and 1.3 | 1.41 | 0.988 | 0.687 and 1.09 | 2.54 and 1.34 | 1.18 | 1.21 | 2.57 and 1.25 |
| CC1=NC(C)SC1C (configuration not stated) | – | 1.02 and 0.959 | 0.703 | 0.605 | 0.824 | – | – | 0.948 | 0.886 | – | – | – | 1.26 | – | – | 0.655 | 0.757 | – | – | 0.754 |
| CCCCCCCC=CC=O [2-decenal] | 1.11 | 1.45 | 0.689 | 1.41 | 0.657 | 26.7 | 17.4 | 1.33 | 1.41 | 1.58 | 0.928 | 0.925 | 0.849 | 1.26 | 1.19 | 22.3 | 1.6 | 1.93 | 1.21 | 0.853 |
| CCCCCCC=O [heptaldehyde] | 1.36 | – | 0.768 and 1.19 and 0.803 | – | – | 1.12 | 2 | 0.452 and 0.943 | 0.376 and 1.02 | 0.8 | 1.54 | 1.16 | 0.298 and 0.799 | 0.954 | 1.29 | 0.823 and 1.19 | – | 0.797 | 0.608 | 0.479 and 1.11 |
| CCCCCCCC=O [octyl aldehyde] | 0.968 | 0.886 | 1.09 | 0.953 | 1.27 | 1.17 | 1.08 | 1.06 | 0.997 | 0.884 | 0.866 | 0.854 | 1.1 | 1.09 | 0.842 | 1.04 | 1.24 | 0.639 | 1.16 | 1.08 |
| CC12C=CCC1C1CCC3CC(=O)CCC3(C)C1CC2 (configuration not stated) [androstenone] | – | 0.886 | 1.36 | 8.43 | 4.07 | 17.5 | 9.49 | 8.94 | 5.97 | – | – | – | 6.32 | – | – | 10.8 | 9.87 | – | – | 4.14 |
| CC(C)CCC(=O)O [4-methylvaleric acid] | 0.743 | 1.04 | 1.17 | 1.24 | 0.845 | 15.1 | 10.4 | 0.992 | 1.27 | 0.953 | 0.902 | 0.716 | 0.965 | 0.984 | 0.815 | 11.7 | 0.817 | 1.14 | 0.996 | 0.809 |
| CC(=O)OC1CC2CCC1(C)C2(C)C (configuration not stated) [isobornyl acetate] | 1.17 | 1.16 and 1.28 | 1.14 and 0.784 | 1.26 | 1.02 | 0.71 | 1.71 | 0.901 | 0.978 | 0.939 | 0.916 | 0.911 | 0.885 | 0.963 | 0.67 | 0.811 | 1.34 | 0.745 | 1.04 | 1.14 |
